Assay results as given in PMC11127964.
These are yes or no findings as the source states them, for the method shown. Some results given as binding are weak or reduced against the parent protein; the word gives no strength. Where a sequence is shown, tags or fusion partners need not be part of it. Each block holds one binder with its values, some of them ahead of it.

Protein sequences, listed by entry. Tags and fused reporters are not part of them.
UniProt A8MS85: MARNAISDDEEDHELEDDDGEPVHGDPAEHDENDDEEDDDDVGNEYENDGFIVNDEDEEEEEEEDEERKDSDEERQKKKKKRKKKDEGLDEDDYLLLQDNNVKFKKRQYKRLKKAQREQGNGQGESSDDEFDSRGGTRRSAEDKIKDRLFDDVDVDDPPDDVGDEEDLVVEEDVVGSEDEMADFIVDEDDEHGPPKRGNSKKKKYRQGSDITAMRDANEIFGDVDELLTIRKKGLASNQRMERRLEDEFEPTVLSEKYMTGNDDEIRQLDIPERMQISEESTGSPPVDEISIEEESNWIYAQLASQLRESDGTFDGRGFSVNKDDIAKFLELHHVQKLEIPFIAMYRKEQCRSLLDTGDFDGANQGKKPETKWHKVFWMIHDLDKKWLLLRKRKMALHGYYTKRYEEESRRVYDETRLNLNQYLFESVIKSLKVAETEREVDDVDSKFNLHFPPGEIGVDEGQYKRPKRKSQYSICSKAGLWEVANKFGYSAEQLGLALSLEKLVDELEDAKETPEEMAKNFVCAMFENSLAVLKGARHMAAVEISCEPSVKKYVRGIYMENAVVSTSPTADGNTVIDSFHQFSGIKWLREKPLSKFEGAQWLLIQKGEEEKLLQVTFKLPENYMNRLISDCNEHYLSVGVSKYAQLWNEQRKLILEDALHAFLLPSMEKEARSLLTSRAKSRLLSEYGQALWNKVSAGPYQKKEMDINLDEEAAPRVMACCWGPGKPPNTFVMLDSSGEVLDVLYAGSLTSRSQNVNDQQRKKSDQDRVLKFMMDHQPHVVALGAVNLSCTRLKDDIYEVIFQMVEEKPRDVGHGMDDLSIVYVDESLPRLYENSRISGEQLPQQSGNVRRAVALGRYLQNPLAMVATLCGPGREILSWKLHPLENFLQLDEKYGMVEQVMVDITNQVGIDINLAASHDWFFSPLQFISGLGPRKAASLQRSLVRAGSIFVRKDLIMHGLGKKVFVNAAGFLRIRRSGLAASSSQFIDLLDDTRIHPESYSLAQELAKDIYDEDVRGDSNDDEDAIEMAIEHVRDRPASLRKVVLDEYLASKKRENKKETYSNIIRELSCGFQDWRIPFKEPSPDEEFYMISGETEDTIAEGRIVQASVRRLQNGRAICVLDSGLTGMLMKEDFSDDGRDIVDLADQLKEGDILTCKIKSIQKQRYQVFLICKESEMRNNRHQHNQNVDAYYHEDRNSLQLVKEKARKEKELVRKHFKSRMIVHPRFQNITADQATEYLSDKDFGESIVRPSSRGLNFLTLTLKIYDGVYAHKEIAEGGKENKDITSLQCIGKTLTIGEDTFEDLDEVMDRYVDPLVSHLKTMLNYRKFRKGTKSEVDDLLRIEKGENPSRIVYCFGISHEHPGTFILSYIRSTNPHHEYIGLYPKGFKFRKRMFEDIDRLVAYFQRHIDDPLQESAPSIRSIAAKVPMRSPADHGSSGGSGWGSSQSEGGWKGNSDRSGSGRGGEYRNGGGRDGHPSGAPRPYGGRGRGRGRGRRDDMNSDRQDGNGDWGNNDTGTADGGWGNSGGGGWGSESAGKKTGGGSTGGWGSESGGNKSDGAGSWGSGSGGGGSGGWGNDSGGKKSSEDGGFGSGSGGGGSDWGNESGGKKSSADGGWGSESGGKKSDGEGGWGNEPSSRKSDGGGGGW

Molecular target: SPT6L (SPT6-like), yeast two-hybrid bait in pGBKT7 (Arabidopsis) (UniProt A8MS85)
Experiment: two-hybrid; bait SPT6L in pGBKT7, preys in pGADT7, co-transformed into yeast AH109; growth on -Leu/-Trp/-His medium with 10 mM 3-AT

binding: binds
B1: NRP(D/E)4, Pol IV and V shared subunit, yeast two-hybrid prey in pGADT7 (protein, UniProt Q6DBA5 1-205)
chain: MSEKGGKGLKSSLKSKDGGKDGSSTKLKKGRKIHFDQRTPPANYKILNVSSDQQPFQSSAAKCGKSDKPTKSSKNSLHSFELKDLPENAECMMDCEAFQILDGIKGQLVGLSEDPSIKIPVSYDRALAYVESCVHYTNPQSVRKVLEPLKTYGISDGEMCVIANASSESVDEVLAFIPSLKTKKEVINQPLQDALEELSKLKKSE

binding: binds
B2: SPT5L, yeast two-hybrid fusion (protein, UniProt F4JW79 1-1493)
chain: MDRKGKGKQVAGSDSYSGGQKRKNSVEFRDEGLRIKKRKNPEVLQFFEESAEVGYYGGSSDEDDDGLGFLNDMEDEPEVEESSKAGKGEKGKSSFVFPKEEDLNEEEFDRIMEERYKPGSGFLRYADDDIKDAIEMDALAPTSKDPPIWKVKCAIGRERRSVFCLMHKFVELRKIGTKLEIISVFSVDHVKGFIFIEADKEHDVLEACKSLVGIYATRMVLLPKAETPNLLTVQKKTKKVSEGTWARVKNGKYKGDLAQIVAVSDTRNKALIKLIPRIDIQALTQKYGGGVTVQKGQTPAPRLISSSELEEFRPLIQVRRDRDTGITFEHLDSLMLKDGYLYKKVSLDSISSWGVIPTKDELLKFTPVDRKETGDVEWISEIYGEERKKKILPTCREGGKGEGSGGGKGEGSGGGKGEGSRGGKGEGSSDFKSESSYELYNLVCFSRKDFGLIVGVDDKGDGYKVLKEGIDGPVVVTVGKKEMQNGPFDSKFTALDLNKKQISVNDVVKISKGPSEGKQGVVRQVYRGIIFLYDESEEENGGYFCCKSQSCEKVKLFTEESNEKTGGFDGTAFEDFVSSPKSPLSPEKEWQPRERYNSSNQGDIGSTYSIGQKLRIRVGPLKGYLCRVIALRYSDVTVKLDSQHKIFTVKSEHLAEVRDRNTVLSTSGDAGTGSFQPFGMLGTESSTGDWAIGAGTSSEGGNWNIGGPSTDSHESLNIERNMVQLCREKNPWGGSKPTSDVSPTVADDNTSAWANAAAENKPASASDQPGGWNPWGKTPASEAGTVSGWGDTSASNVEASSWEKQGASTSNVADLGSWGTHGGSSGGNKQDEDSVWGKLCEASESSQKKEESSWGKKGGSDGESSWGNKDGNSSASKKDGVSWGQQDKGSDESKGGSAWSNQCGDFGSGKKKDGSSGWNKSAEDSNANSKGVPDWGQPNDGSSWGKKGDGAASWGKKDDGGSWGKKDDGNKDDGGSSWGKKDDGQKDDGGSSWEKKFDGGSSWGKKDDGGSSWGKKDDGGSLWGKKDDGGSSWGKEDDGGSLWGKKDDGESSWGKKDDGESSWGKKDDGGSSWGKKDEGGYSEQTFDRGGRGFGGRRGGGRRGGRDQFGRGSSFGNSEDPAPWSKPSGGSSWGKQDGDGGGSSWGKENDAGGGSSWGKQDNGVGSSWGKQNDGSGGGSSWGKQNDAGGGSSWGKQDSGGDGSSWGKQDGGGDSGSAWGKQNNTSGGSSWGKQSDAGGGSSWGKQDGGGGGSSWGKQDGGGGSGSAWGKQNETSNGSSWGKQNDSGGGSSWGKQDGGGGGSSWGKQNDGGGGSSWGKQGDGGSKPWNEHSGGGRGFGERRGGGGFRGGRNQSGRGGRSFDGGRSSSWKTDNQENTWKSDQSGGSDWKKGWGEDSNNSKPSGSSAGGCAGNWPSWDTNSKKETNDKPGDDSKSAWGTSNDQVNTDNNNDSWNKKPNNDVGTSGEADNAWGGKTNAVAPSPSGSAAWGTGDKKTGW
